Reference: PubChem BioAssay AID1159578 (Peter MacCallum Cancer Centre, 2015)

Screen: 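siRNA pools altering how lymphatic endothelial cells close a scratch wound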 (primary screen)
System: human lymphatic endothelial cells
Knock-down reagent: siRNA pool against human genes, 40 nM
Timing: 48 h after transfection
Measured: 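Cells stained with dye and imaged after a scratch; covered wound area and nuclei counted, duplicates averaged, migration set against mock wells and turned into a robust z-score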
Direction: migration robust z-score: higher = faster migration into the scratch; nuclei per well: higher = more cells in the well
Active means: 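Migration changed when robust z exceeds 2 or falls below -2 and mean nuclei number is at least 3300; otherwise not called changed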
Meaning of the calls: active = migration changed; inactive = no migration change, or too few cells
In all, the deposit lists about 18,000 reagents; below is a part drawn at random. Over the whole deposit, about 1,030 (5.7%) were called active. 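Inactive calls also include pools with fewer than 3300 nuclei, whose migration was not assessed.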 Raw values are not corrected between plates. Further read-outs or replicates are left out here.

The first 2 entries, to show the layout:
NAMPT (nicotinamide phosphoribosyltransferase) | migration robust z-score = -0.88; migration class with cell-count check = migration z between -2 and 2; enough cells; nuclei per well, duplicate mean = 5866; Call = inactive
ZNF317 (zinc finger protein 317) | migration robust z-score = -0.58; migration class with cell-count check = under 3300 nuclei; migration not judged; nuclei per well, duplicate mean = 2960; Call = inactive

The list itself, repeating the preview:
NAMPT (nicotinamide phosphoribosyltransferase) | migration robust z-score = -0.88; migration class with cell-count check = migration z between -2 and 2; enough cells; nuclei per well, duplicate mean = 5866; Call = inactive
ZNF317 (zinc finger protein 317) | migration robust z-score = -0.58; migration class with cell-count check = under 3300 nuclei; migration not judged; nuclei per well, duplicate mean = 2960; Call = inactive
PIGF (phosphatidylinositol glycan anchor biosynthesis class F) | migration robust z-score = 0.24; migration class with cell-count check = migration z between -2 and 2; enough cells; nuclei per well, duplicate mean = 5298; Call = inactive
SCAF8 (SR-related CTD associated factor 8) | migration robust z-score = 0.25; migration class with cell-count check = migration z between -2 and 2; enough cells; nuclei per well, duplicate mean = 6050; Call = inactive
ETS1 (ETS proto-oncogene 1, transcription factor) | migration robust z-score = -0.05; migration class with cell-count check = migration z between -2 and 2; enough cells; nuclei per well, duplicate mean = 5462; Call = inactive
HLA-C (major histocompatibility complex, class I, C) | migration robust z-score = 0.24; migration class with cell-count check = migration z between -2 and 2; enough cells; nuclei per well, duplicate mean = 6045; Call = inactive
NUBPL (NUBP iron-sulfur cluster assembly factor, mitochondrial) | migration robust z-score = 0.36; migration class with cell-count check = migration z between -2 and 2; enough cells; nuclei per well, duplicate mean = 5294; Call = inactive
TM9SF3 (transmembrane 9 superfamily member 3) | migration robust z-score = -0.14; migration class with cell-count check = migration z between -2 and 2; enough cells; nuclei per well, duplicate mean = 5966; Call = inactive
TMPRSS13 (transmembrane serine protease 13) | migration robust z-score = 0; migration class with cell-count check = migration z between -2 and 2; enough cells; nuclei per well, duplicate mean = 5688; Call = inactive
GRID2 (glutamate ionotropic receptor delta type subunit 2) | migration robust z-score = 0.68; migration class with cell-count check = migration z between -2 and 2; enough cells; nuclei per well, duplicate mean = 6738; Call = inactive
FZD3 (frizzled class receptor 3) | migration robust z-score = 1.61; migration class with cell-count check = migration z between -2 and 2; enough cells; nuclei per well, duplicate mean = 5497; Call = inactive
GBP7 (guanylate binding protein 7) | migration robust z-score = 2.02; migration class with cell-count check = migration z above 2; enough cells; nuclei per well, duplicate mean = 5852; Call = active
DDX3Y (DEAD-box helicase 3 Y-linked) | migration robust z-score = -0.18; migration class with cell-count check = migration z between -2 and 2; enough cells; nuclei per well, duplicate mean = 4613; Call = inactive
DBF4B (DBF4B-CDC7 kinase regulatory subunit) | migration robust z-score = -0.35; migration class with cell-count check = migration z between -2 and 2; enough cells; nuclei per well, duplicate mean = 6002; Call = inactive
